The source of these data is paper PMC8191807, “The fidelity of DNA replication, particularly on GC-rich templates, is reduced by defects of the Fe–S cluster in DNA polymerase δ” (Nucleic Acids Research, 2021).

For test [1], the target named is T1, Pol31 fused to a LexA DNA-binding domain (LexBD-POL31, pBL363) (S. cerevisiae) (UniProt P46957).
T1 sequence: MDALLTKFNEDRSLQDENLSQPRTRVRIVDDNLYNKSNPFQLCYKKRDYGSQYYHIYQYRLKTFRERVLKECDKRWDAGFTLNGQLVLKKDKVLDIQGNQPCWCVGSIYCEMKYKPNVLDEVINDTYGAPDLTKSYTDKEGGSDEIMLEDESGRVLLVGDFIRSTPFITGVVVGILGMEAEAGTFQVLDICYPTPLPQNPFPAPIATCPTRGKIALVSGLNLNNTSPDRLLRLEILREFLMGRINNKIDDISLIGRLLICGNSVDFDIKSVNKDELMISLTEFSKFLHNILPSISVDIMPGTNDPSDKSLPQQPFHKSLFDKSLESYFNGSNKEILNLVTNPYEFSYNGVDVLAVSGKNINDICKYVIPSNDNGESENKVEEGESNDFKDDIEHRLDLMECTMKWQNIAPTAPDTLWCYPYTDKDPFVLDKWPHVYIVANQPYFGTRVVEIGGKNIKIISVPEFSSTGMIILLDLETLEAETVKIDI
The experiment in a line: two-hybrid; LexA DNA-binding domain and GAL4 activation domain fusions, (lexAop)8-lacZ reporter, quantitative β-galactosidase assays in triplicate; wild-type strain L40 and its met18Δ derivative DKy440.

Test [2] concerns the target T2, Pol3 fused to a LexA DNA-binding domain (LexABD-POL3, pBL322) (S. cerevisiae) (UniProt P15436).
T2 sequence: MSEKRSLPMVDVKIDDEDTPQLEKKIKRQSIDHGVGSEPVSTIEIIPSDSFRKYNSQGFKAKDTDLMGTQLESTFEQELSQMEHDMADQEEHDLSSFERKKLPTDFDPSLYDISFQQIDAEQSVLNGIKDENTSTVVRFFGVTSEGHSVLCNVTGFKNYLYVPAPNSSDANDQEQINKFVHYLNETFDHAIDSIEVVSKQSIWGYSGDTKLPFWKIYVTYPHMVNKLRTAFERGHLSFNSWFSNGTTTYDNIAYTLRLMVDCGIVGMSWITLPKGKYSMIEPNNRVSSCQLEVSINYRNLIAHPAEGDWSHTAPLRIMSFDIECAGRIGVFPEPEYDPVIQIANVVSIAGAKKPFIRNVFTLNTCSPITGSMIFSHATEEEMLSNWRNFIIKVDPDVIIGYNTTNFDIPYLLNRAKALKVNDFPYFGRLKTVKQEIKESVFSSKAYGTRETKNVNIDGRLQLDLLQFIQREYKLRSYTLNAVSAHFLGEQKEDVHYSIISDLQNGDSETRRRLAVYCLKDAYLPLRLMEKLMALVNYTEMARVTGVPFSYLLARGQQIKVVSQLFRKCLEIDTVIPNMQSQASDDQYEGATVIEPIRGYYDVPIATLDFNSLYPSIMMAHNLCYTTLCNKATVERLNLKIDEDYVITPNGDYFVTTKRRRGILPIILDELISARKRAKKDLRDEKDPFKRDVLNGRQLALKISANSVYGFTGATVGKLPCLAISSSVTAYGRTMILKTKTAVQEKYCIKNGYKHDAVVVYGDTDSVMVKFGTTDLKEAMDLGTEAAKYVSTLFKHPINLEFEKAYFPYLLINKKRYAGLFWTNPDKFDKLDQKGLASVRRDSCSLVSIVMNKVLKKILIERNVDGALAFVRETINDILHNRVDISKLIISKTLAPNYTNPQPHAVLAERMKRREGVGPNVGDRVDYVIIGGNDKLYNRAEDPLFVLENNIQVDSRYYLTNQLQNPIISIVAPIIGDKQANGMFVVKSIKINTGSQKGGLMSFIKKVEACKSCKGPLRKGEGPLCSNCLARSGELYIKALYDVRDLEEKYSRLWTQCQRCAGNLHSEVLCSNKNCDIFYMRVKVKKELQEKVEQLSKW
The description is as above.

Test [3] deals with T3, Pol3p, catalytic subunit of DNA polymerase δ (overexpressed for Pol δ purification) (S. cerevisiae) (UniProt P15436).
T3 sequence: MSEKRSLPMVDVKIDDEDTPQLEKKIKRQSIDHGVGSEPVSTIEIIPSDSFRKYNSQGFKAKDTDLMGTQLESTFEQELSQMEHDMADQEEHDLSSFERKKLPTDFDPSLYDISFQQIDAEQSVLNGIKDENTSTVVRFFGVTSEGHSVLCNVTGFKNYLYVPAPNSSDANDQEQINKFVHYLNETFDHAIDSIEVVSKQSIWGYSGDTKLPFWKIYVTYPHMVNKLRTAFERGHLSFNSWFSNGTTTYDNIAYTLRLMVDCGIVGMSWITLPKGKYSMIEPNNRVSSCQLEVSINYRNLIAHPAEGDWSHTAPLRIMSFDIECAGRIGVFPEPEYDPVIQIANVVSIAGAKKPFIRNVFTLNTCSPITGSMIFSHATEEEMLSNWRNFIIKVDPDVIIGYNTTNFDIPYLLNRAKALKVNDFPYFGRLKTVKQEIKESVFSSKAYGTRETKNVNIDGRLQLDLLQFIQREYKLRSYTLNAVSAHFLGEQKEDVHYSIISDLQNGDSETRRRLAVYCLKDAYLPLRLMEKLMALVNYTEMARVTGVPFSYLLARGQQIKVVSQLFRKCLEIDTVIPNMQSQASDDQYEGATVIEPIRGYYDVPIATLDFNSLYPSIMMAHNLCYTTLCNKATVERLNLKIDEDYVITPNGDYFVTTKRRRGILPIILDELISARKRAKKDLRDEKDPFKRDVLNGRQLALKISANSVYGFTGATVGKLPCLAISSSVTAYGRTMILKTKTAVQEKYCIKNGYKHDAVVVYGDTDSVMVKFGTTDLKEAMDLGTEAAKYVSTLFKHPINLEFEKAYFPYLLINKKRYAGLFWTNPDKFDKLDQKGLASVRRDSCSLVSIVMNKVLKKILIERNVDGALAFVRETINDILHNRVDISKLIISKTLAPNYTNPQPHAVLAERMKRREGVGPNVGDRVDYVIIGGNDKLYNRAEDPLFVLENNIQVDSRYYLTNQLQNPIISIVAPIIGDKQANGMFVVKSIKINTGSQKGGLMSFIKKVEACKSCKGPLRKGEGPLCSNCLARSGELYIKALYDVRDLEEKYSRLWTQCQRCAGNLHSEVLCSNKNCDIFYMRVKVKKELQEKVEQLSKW
The experiment in a line: co-purification (glutathione Sepharose, MonoS FPLC), composition by gel electrophoresis; as a1, but overexpressed in and purified from the met18Δ derivative DKy501.

No constants are given. Whether binding was seen depends on the method and setting. Some entries that bind do so weakly or less than the wild type. For some of these results: Sequences can lack the tags named with a protein.

B1: Pol3 fused to a GAL4-activation domain (GAL4AD-POL3, pBL323) (enzyme, UniProt P15436 1-1097)
chain: MSEKRSLPMVDVKIDDEDTPQLEKKIKRQSIDHGVGSEPVSTIEIIPSDSFRKYNSQGFKAKDTDLMGTQLESTFEQELSQMEHDMADQEEHDLSSFERKKLPTDFDPSLYDISFQQIDAEQSVLNGIKDENTSTVVRFFGVTSEGHSVLCNVTGFKNYLYVPAPNSSDANDQEQINKFVHYLNETFDHAIDSIEVVSKQSIWGYSGDTKLPFWKIYVTYPHMVNKLRTAFERGHLSFNSWFSNGTTTYDNIAYTLRLMVDCGIVGMSWITLPKGKYSMIEPNNRVSSCQLEVSINYRNLIAHPAEGDWSHTAPLRIMSFDIECAGRIGVFPEPEYDPVIQIANVVSIAGAKKPFIRNVFTLNTCSPITGSMIFSHATEEEMLSNWRNFIIKVDPDVIIGYNTTNFDIPYLLNRAKALKVNDFPYFGRLKTVKQEIKESVFSSKAYGTRETKNVNIDGRLQLDLLQFIQREYKLRSYTLNAVSAHFLGEQKEDVHYSIISDLQNGDSETRRRLAVYCLKDAYLPLRLMEKLMALVNYTEMARVTGVPFSYLLARGQQIKVVSQLFRKCLEIDTVIPNMQSQASDDQYEGATVIEPIRGYYDVPIATLDFNSLYPSIMMAHNLCYTTLCNKATVERLNLKIDEDYVITPNGDYFVTTKRRRGILPIILDELISARKRAKKDLRDEKDPFKRDVLNGRQLALKISANSVYGFTGATVGKLPCLAISSSVTAYGRTMILKTKTAVQEKYCIKNGYKHDAVVVYGDTDSVMVKFGTTDLKEAMDLGTEAAKYVSTLFKHPINLEFEKAYFPYLLINKKRYAGLFWTNPDKFDKLDQKGLASVRRDSCSLVSIVMNKVLKKILIERNVDGALAFVRETINDILHNRVDISKLIISKTLAPNYTNPQPHAVLAERMKRREGVGPNVGDRVDYVIIGGNDKLYNRAEDPLFVLENNIQVDSRYYLTNQLQNPIISIVAPIIGDKQANGMFVVKSIKINTGSQKGGLMSFIKKVEACKSCKGPLRKGEGPLCSNCLARSGELYIKALYDVRDLEEKYSRLWTQCQRCAGNLHSEVLCSNKNCDIFYMRVKVKKELQEKVEQLSKW
B1: in test [1], the binding result is on record as “binds”.

B2: Pol31 fused to a GAL4-activation domain (GAL4AD-POL31, pBL364) (natural protein, S. cerevisiae, UniProt P46957 1-487, looked up)
chain: MDALLTKFNEDRSLQDENLSQPRTRVRIVDDNLYNKSNPFQLCYKKRDYGSQYYHIYQYRLKTFRERVLKECDKRWDAGFTLNGQLVLKKDKVLDIQGNQPCWCVGSIYCEMKYKPNVLDEVINDTYGAPDLTKSYTDKEGGSDEIMLEDESGRVLLVGDFIRSTPFITGVVVGILGMEAEAGTFQVLDICYPTPLPQNPFPAPIATCPTRGKIALVSGLNLNNTSPDRLLRLEILREFLMGRINNKIDDISLIGRLLICGNSVDFDIKSVNKDELMISLTEFSKFLHNILPSISVDIMPGTNDPSDKSLPQQPFHKSLFDKSLESYFNGSNKEILNLVTNPYEFSYNGVDVLAVSGKNINDICKYVIPSNDNGESENKVEEGESNDFKDDIEHRLDLMECTMKWQNIAPTAPDTLWCYPYTDKDPFVLDKWPHVYIVANQPYFGTRVVEIGGKNIKIISVPEFSSTGMIILLDLETLEAETVKIDI
notes: Pol31p, accessory subunit of DNA polymerase δ, Saccharomyces cerevisiae; also called Pol31^AD; source: yeast two-hybrid fusion (2μ vector pACT2, strain L40 or its met18Δ derivative DKy440)
B2: the binding result in test [2] is “binds”.

B3: Pol31p, accessory subunit of DNA polymerase δ (overexpressed for Pol δ purification) (natural protein, S. cerevisiae, UniProt P46957 1-487, looked up)
chain: MDALLTKFNEDRSLQDENLSQPRTRVRIVDDNLYNKSNPFQLCYKKRDYGSQYYHIYQYRLKTFRERVLKECDKRWDAGFTLNGQLVLKKDKVLDIQGNQPCWCVGSIYCEMKYKPNVLDEVINDTYGAPDLTKSYTDKEGGSDEIMLEDESGRVLLVGDFIRSTPFITGVVVGILGMEAEAGTFQVLDICYPTPLPQNPFPAPIATCPTRGKIALVSGLNLNNTSPDRLLRLEILREFLMGRINNKIDDISLIGRLLICGNSVDFDIKSVNKDELMISLTEFSKFLHNILPSISVDIMPGTNDPSDKSLPQQPFHKSLFDKSLESYFNGSNKEILNLVTNPYEFSYNGVDVLAVSGKNINDICKYVIPSNDNGESENKVEEGESNDFKDDIEHRLDLMECTMKWQNIAPTAPDTLWCYPYTDKDPFVLDKWPHVYIVANQPYFGTRVVEIGGKNIKIISVPEFSSTGMIILLDLETLEAETVKIDI
notes: Pol31p, accessory subunit of DNA polymerase δ, Saccharomyces cerevisiae
Turning to B3, the binding entry in test [3] is recorded as “no binding (condition: purified from the met18Δ strain)”.

B4: Pol32p, accessory subunit of DNA polymerase δ (overexpressed for Pol δ purification) (natural protein, S. cerevisiae, UniProt P47110 1-350, looked up)
chain: MDQKASYFINEKLFTEVKPVLFTDLIHHLKIGPSMAKKLMFDYYKQTTNAKYNCVVICCYKDQTIKIIHDLSNIPQQDSIIDCFIYAFNPMDSFIPYYDIIDQKDCLTIKNSYELKVSESSKIIERTKTLEEKSKPLVRPTARSKTTPEETTGRKSKSKDMGLRSTALLAKMKKDRDDKETSRQNELRKRKEENLQKINKQNPEREAQMKELNNLFVEDDLDTEEVNGGSKPNSPKETDSNDKDKNNDDLEDLLETTAEDSLMDVPKIQQTKPSETEHSKEPKSEEEPSSFIDEDGYIVTKRPATSTPPRKPSPVVKRALSSSKKQETPSSNKRLKKQGTLESFFKRKAK
notes: Pol32p, accessory subunit of DNA polymerase δ, Saccharomyces cerevisiae
Take B4: in test [3], the binding result is reported as “no binding (condition: purified from the met18Δ strain)”.
